These are yes or no findings as the source states them, for the method shown. In cells and extracts the contact can be indirect. These calls come from enrichment with a bait or labelling near it, and not all partners need be listed.
Target: T1, ENDOG (bait of the ENDOG IP-Mass data) (UniProt Q14249)
T1 sequence: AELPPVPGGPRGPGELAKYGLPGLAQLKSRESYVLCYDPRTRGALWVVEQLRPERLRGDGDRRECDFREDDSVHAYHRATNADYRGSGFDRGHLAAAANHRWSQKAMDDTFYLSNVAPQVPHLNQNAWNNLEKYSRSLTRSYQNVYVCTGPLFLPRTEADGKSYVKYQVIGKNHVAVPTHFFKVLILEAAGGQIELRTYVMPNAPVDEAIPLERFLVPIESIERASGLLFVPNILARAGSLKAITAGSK
Assay: affinity purification with mass spectrometry; reanalysis of the authors' ENDOG IP-Mass data of ref. 23

Protein sequences, listed by entry. Tags and fused reporters are not part of them. Residues count along the entry.
UniProt P11021, residues 19-654: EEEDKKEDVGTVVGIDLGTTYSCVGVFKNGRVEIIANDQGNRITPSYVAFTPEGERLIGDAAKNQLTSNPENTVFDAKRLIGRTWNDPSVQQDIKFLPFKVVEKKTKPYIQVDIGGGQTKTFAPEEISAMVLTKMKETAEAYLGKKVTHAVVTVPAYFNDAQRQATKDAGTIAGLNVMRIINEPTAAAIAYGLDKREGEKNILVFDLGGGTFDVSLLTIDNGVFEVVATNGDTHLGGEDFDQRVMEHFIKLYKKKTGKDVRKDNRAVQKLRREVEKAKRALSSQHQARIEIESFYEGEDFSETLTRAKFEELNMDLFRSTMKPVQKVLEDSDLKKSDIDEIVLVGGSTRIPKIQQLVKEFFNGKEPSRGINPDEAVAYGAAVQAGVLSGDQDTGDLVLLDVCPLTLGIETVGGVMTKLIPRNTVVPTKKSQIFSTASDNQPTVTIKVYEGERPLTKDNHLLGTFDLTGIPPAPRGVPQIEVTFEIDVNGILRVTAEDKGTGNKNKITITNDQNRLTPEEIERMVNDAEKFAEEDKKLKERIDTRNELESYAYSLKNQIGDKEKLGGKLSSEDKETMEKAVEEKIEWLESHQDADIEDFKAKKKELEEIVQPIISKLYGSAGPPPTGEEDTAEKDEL
UniProt P27824, residues 21-592: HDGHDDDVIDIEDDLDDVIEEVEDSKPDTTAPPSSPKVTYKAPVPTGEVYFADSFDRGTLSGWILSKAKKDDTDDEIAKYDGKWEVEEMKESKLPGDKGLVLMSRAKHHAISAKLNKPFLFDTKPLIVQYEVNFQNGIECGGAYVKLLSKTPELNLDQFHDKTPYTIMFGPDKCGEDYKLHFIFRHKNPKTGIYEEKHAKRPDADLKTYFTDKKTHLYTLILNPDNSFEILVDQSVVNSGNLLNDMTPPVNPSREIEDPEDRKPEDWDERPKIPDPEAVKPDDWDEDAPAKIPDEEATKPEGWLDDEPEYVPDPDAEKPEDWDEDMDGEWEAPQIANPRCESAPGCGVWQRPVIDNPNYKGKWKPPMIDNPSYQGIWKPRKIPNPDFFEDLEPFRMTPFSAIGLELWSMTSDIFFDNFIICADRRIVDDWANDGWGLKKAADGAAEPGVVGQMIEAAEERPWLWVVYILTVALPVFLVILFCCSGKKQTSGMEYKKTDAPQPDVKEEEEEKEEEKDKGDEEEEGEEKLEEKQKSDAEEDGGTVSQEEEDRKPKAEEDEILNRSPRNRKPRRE
UniProt P38646, residues 47-679: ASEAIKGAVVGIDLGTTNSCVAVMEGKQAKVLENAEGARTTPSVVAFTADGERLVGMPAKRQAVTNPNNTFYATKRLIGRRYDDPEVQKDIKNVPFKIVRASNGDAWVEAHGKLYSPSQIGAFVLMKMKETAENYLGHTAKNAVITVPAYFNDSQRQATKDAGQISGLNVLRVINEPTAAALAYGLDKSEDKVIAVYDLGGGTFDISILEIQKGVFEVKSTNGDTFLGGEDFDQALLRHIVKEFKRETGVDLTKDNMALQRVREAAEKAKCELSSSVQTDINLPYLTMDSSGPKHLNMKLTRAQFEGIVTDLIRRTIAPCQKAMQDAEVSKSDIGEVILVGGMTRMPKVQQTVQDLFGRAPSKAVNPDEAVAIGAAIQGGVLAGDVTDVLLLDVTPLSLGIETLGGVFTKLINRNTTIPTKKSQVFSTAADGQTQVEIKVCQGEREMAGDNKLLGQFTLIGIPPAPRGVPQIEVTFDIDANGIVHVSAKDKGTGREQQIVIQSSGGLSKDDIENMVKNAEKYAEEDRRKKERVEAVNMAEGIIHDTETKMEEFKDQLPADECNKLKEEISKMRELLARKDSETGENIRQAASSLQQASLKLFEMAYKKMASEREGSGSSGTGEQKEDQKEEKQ

binding	Substance
binds	Bip (hit of the ENDOG IP-Mass data) (from UniProt P11021 19-654)
binds	Calnexin (hit of the ENDOG IP-Mass data) (from UniProt P27824 21-592)
binds	Grp75 (hit of the ENDOG IP-Mass data) (from UniProt P38646 47-679)
